Counter-ions that a name gives are not always drawn. Some of these results come from one statement about several compounds together.
target: T1, RIPK2 (Homo sapiens, UniProt O43353); assay: Fluorescent polarization based binding assay at the ATP binding pocket of RIPK2; conditions: full length FLAG His tagged RIPK2; competition with fluorescently labeled ATP competitive ligand (5 nM); mean of a minimum of 2 experiments
T1 construct: Full length FLAG His tagged RIPK2 was purified from a Baculovirus expression system; FLAG (N); 6His (N); made in house; host or cells: Spodoptera frugiperda (Sf9) insect cells, baculovirus
Description: A fluorescent polarization based binding assay was developed to quantitate interaction of novel test compounds at the ATP binding pocket of RIPK2, by competition with a fluorescently labeled ATP competitive ligand. Full length FLAG His tagged RIPK2 was purified from a Baculovirus expression system and was used at a final assay concentration of twice the KDapparent. A fluorescent labeled ligand (5-({[2-({[3-({4-[(5-hydroxy-2-methylphenyl)amino]-2-pyrimidinyl}amino)phenyl]carbonyl}amino)ethyl]amino}carbonyl)-2-(6-hydroxy-3-oxo-3H-xanthen-9-yl)benzoic acid, prepared as described below) was used at a final assay concentration of 5 nM. Both the enzyme and ligand were prepared in solutions in 50 mM HEPES pH7.5, 150 mM NaCl, 10 mM MgCl2, 1 mM DTT, and 1 mM CHAPS. Test compounds were prepared in 100% DMSO and 100 nL was dispensed to individual wells of a multiwell plate. Next, 5 ul RIPK2 was added to the test compounds at twice the final assay concentration, and incubated at room temperature for 10 minutes. Following the incubation, 5 ul of the fluorescent labeled ligand solution, was added to each reaction, at twice the final assay concentration, and incubated at room temperature for at least 10 minutes. Finally, samples were read on an instrument capable of measuring fluorescent polarization. Test compound inhibition was expressed as percent (%) inhibition of internal assay controls.
For concentration response experiments, normalized data were fit and pIC50s determined using conventional techniques. For example, the following four parameter logistic equation may be used: y=A+((B−C))/(1+(10^x)/(10^C)^D), where: y is the % activity (% inhibition) at a specified compound concentration; A is the minimum % activity; B is the maximum % activity; C=log10(IC50); D=Hill slope; x=log10 (compound concentration [M]); and pIC50=(−C).
The pIC50s are averaged to determine a mean value, for a minimum of 2 experiments.
Full-length human RIPK2 (receptor-interacting serine-threonine kinase 2) cDNA was purchased from Invitrogen (Carlsbad, Calif., USA, Clone ID:IOH6368, RIPK2-pENTR 221). Gateway® LR cloning was used to site-specifically recombine RIPK2 downstream to an N-terminal FLAG-6His contained within the destination vector pDEST8-FLAG-His6 according to the protocol described by Invitrogen. Transfection into Spodoptera frugiperda (Sf9) insect cells was performed using Cellfectin® (Invitrogen), according to the manufacturer's protocol.

Protein sequences, listed by entry. Tags and fused reporters are not part of them.
UniProt O43353, whole entry: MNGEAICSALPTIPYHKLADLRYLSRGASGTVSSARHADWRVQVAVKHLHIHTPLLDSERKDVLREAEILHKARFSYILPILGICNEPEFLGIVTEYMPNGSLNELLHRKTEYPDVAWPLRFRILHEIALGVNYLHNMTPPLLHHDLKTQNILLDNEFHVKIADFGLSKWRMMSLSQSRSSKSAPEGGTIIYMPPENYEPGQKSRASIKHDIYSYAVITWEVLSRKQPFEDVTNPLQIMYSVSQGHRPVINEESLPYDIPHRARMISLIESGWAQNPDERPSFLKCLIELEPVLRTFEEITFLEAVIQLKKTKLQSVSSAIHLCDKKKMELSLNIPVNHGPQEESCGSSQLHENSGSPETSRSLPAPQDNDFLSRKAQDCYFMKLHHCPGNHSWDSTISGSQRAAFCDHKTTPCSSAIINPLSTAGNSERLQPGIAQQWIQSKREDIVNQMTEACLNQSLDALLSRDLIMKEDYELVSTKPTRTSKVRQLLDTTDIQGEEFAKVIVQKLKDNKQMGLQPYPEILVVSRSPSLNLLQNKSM

Structure (SMILES)	mean pIC50
CCS(=O)(=O)c1ccc(OC)c(Nc2nccc(Nc3n[nH]c(C)c3C)n2)c1 [Example 117, N^4-(4,5-dimethyl-1H-pyrazol-3-yl)-N^2-[5-(ethylsulfonyl)-2-(methyloxy)phenyl]-2,4-pyrimidinediamine]	greater than or equal to 6.0
Cc1n[nH]c(Nc2ccnc(Nc3ccc(S(C)(=O)=O)cc3)n2)c1C [Example 87, N4-(3,4-dimethyl-1H-pyrazol-5-yl)-N2-[4-(methylsulfonylphenyl]-2,4-pyrimidinediamine hydrochloride]	greater than or equal to 6.0
COc1ccc(-n2nc(C)cc2Nc2ccnc(Nc3cccc(S(N)(=O)=O)c3)n2)cc1 [Example 47, 3-{[4-({3-methyl-1-[4-(methyloxy)phenyl]-1H-pyrazol-5-yl}amino)-2-pyrimidinyl]amino}benzenesulfonamide]	greater than or equal to 6.0
CCOC(=O)c1cc(Nc2nccc(Nc3c(C)c(C)nn3C)n2)cc(S(C)(=O)=O)c1 [Example 142, ethyl 3-(methylsulfonyl)-5-({4-[(1,3,4-trimethyl-1H-pyrazol-5-yl)amino]-2-pyrimidinyl}amino)benzoate]	greater than or equal to 6.0
COc1ccc(-n2nc(C)cc2Nc2ccnc(Nc3ccc(N4CCN(C)CC4)cc3)n2)cc1 [Example 38, N^4-{3-methyl-1-[4-(methyloxy)phenyl]-1H-pyrazol-5-yl}-N^2-[4-(4-methyl-1-piperazinyl)phenyl]-2,4-pyrimidinediamine]	greater than or equal to 6.0
COc1ccc(Nc2nccc(Nc3c(C)c(C)nn3-c3ccc(C)nc3)n2)cc1OC [Example 13, N^2-[3,4-bis(methyloxy)phenyl]-N^4-[3,4-dimethyl-1-(6-methyl-3-pyridinyl)-1H-pyrazol-5-yl]-2,4-pyrimidinediamine trifluoroacetate]	greater than or equal to 6.0
Cc1n[nH]c(Nc2ccnc(Nc3cccc(S(=O)(=O)N(C)C)c3)n2)c1C [Example 4, 3-({4-[(3,4-Dimethyl-1H-pyrazol-5-yl)amino]-2-pyrimidinyl}amino)-N,N-dimethyl-benzenesulfonamide]	greater than or equal to 6.0
Cn1nc2c(c1Nc1ccnc(Nc3cccc(S(C)(=O)=O)c3)n1)CCC2 [Example 83, N^2-[3-(methylsulfonyl)phenyl]-N^4-(2-methyl-2,4,5,6-tetrahydro-cyclopenta[c]-pyrazol-3-yl)-2,4-pyrimidinediamine trifluoroacetate]	greater than or equal to 6.0
Cc1nn(CCO)c(Nc2ccnc(Nc3cccc(S(C)(=O)=O)c3)n2)c1C [Example 69, 2-{3,4-dimethyl-5-[(2-{[3-(methylsulfonyl)phenyl]amino}-4-pyrimidinyl)amino]-1H-pyrazol-1-yl}ethanol]	greater than or equal to 6.0
COc1cccc(-n2nc(C)cc2Nc2ccnc(Nc3ccc(OC)c(OC)c3)n2)c1 [Example 46, N^2-[3,4-bis(methyloxy)phenyl]-N^4-{3-methyl-1-[3-(methyloxy)phenyl]-1H-pyrazol-5-yl}-2,4-pyrimidinediamine]	greater than or equal to 6.0
COc1ccc(Nc2nccc(Nc3c(C)c(C)nn3-c3ccncc3)n2)cc1OC [Example 14, N^2-[3,4-bis(methyloxy)phenyl]-N^4-[3,4-dimethyl-1-(4-pyridinyl)-1H-pyrazol-5-yl]-2,4-pyrimidinediamine trifluoroacetate]	greater than or equal to 6.0
COc1cc(Nc2nccc(Nc3[nH]nc(C)c3C)n2)cc(OC)c1 [Example 90, N2-[3,5-bis(methyloxy)phenyl]-N4-(3,4-dimethyl-1H-pyrazol-5-yl)-2,4-pyrimidinediamine hydrochloride]	greater than or equal to 6.0
Cc1cc(Nc2ccnc(Nc3ccc(N4CCN(C)CC4)c(Cl)c3)n2)n(-c2ccc(Cl)cc2)n1 [Example 22, N^2-[3-chloro-4-(4-methyl-1-piperazinyl)phenyl]-N^4-[1-(4-chlorophenyl)-3-methyl-1H-pyrazol-5-yl]-2,4-pyrimidinediamine trifluoroacetate]	greater than or equal to 6.0
Cc1n[nH]c(Nc2ccnc(Nc3cccc(S(=O)(=O)C(C)C)c3)n2)c1C [Example 89, N4-(3,4-dimethyl-1H-pyrazol-5-yl)-N2-{3-[(1-methylethyl)-sulfonyl]phenyl}-2,4-pyrimidinediamine hydrochloride]	greater than or equal to 6.0
COc1ccc(Nc2nccc(Nc3c(C)c(C)nn3C3CCOCC3)n2)cc1OC [Example 144, N^2-[3,4-bis(methyloxy)phenyl]-N^4-[3,4-dimethyl-1-(tetrahydro-2H-pyran-4-yl)-1H-pyrazol-5-yl]-2,4-pyrimidinediamine]	greater than or equal to 6.0
Cc1nn(C)c(Nc2ccnc(Nc3cc(C(=O)O)cc(S(C)(=O)=O)c3)n2)c1C [Example 11, 3-(methylsulfonyl)-5-({4-[(1,3,4-trimethyl-1H-pyrazol-5-yl)amino]-2-pyrimidinyl}amino)benzoic acid]	greater than or equal to 6.0
Cc1noc(Nc2ccnc(Nc3cccc(S(=O)(=O)N(C)C)c3)n2)c1C [Example 156, 3-({4-[(3,4-dimethyl-5-isoxazolyl)amino]-2-pyrimidinyl}amino)-N,N-dimethylbenzenesulfonamide trifluoroacetate]	greater than or equal to 6.0
Cc1nn(C)c(Nc2ccnc(Nc3cccc(C(N(C)C)C(F)(F)F)c3)n2)c1C (centres unmarked) [Example 71, N2-{3-[1-(dimethylamino)-2,2,2-trifluoroethyl]phenyl}-N4-(1,3,4-trimethyl-1H-pyrazol-5-yl)-2,4-pyrimidinediamine trifluoroacetate]	greater than or equal to 6.0
CCOc1ccc(Nc2nccc(Nc3[nH]nc(C)c3C)n2)cc1S(=O)(=O)N(C)C [Example 80, 5-({4-[(3,4-dimethyl-1H-pyrazol-5-yl)amino]-2-pyrimidinyl}amino)-2-(ethyloxy)-N,N-dimethylbenzenesulfonamide]	greater than or equal to 6.0
Cc1nn(-c2ccccn2)c(Nc2ccnc(Nc3cccc(S(=O)(=O)N(C)C)c3)n2)c1C [Example 3, 3-[(4-{[3,4-Dimethyl-1-(2-pyridinyl)-1H-pyrazol-5-yl]amino}-2-pyrimidinyl)amino]-N,N-dimethylbenzenesulfonamide]	greater than or equal to 6.0
COc1cc(Nc2nccc(Nc3c(C)c(C)nn3-c3ccccn3)n2)ccc1F [Example 61, N^4-[3,4-dimethyl-1-(2-pyridinyl)-1H-pyrazol-5-yl]-N^2-[4-fluoro-3-(methyloxy)phenyl]-2,4-pyrimidinediamine]	greater than or equal to 6.0
Cc1[nH]nc(Nc2ccnc(Nc3cc(N4CCCC4)cc(S(C)(=O)=O)c3)n2)c1C [Example 123, N4-(4,5-dimethyl-1H-pyrazol-3-yl)-N2-[3-(methylsulfonyl)-5-(1-pyrrolidinyl)phenyl]-2,4-pyrimidinediamine]	greater than or equal to 6.0
COc1ccc(-n2nc(C)c(C)c2Nc2ccnc(Nc3cccc(S(C)(=O)=O)c3)n2)cc1 [Example 18, N^4-{3,4-dimethyl-1-[4-(methyloxy)phenyl]-1H-pyrazol-5-yl}-N^2-[3-(methylsulfonyl)phenyl]-2,4-pyrimidinediamine trifluoroacetate]	greater than or equal to 6.0

Reference: patent publication US20130023534A1, “PYRAZOLYL-PYRIMIDINES AS KINASE INHIBITORS” (priority 2010, published 2013)
